PubChem BioAssay AID493246 | Drosophila RNAi Screening Center | 2011
Assay: 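Genes fly cells need to grow and stay alive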 (primary screen). Cell system: Drosophila Kc and S2R+ cells. Reagents: long dsRNA against Drosophila genes. Detection: 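Cell number per well after knock-down, printed as raw plate values; calls were based on per-plate z-scores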. Scale: Kc cell number and S2R+ cell number: higher = more cells remaining. Call rule: 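Counted as a hit if cell number falls by a z-score of at least 3 within its plate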.
In all, the deposit lists about 21,000 reagents; this is a random part of those with a known target gene and a result. In the full data, 429 (2%) were called active. 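Values are raw and not normalised between plates; calls rest on per-plate z-scores that were not deposited.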 Reagents against one gene are numbered here. A plus sign joins genes that one reagent is predicted to hit. Not given: the amount of reagent, the time to read-out.

| target | reagent no. | Kc cell number, rep 1 | Kc cell number, rep 2 | S2R+ cell number, rep 1 | S2R+ cell number, rep 2 | Outcome |
| --- | --- | --- | --- | --- | --- | --- |
| Cyp318a1 (GeneID 32172) | 1 | 1.57e6 | 1.50e6 | 1.04e6 | 1.18e6 | inactive |
| CG8960 (GeneID 38280) | 1 | 1.56e6 | 1.55e6 | 1.11e6 | 1.28e6 | inactive |
| Vm26Aa (GeneID 33829) | 1 | 1.61e6 | 1.27e6 | 1.12e6 | 1.28e6 | inactive |
| CG31360 (GeneID 318698) | 1 | 1.40e6 | 1.46e6 | 1.04e6 | 1.07e6 | inactive |
| CG13471 (GeneID 39604) | 1 | 1.35e6 | 1.36e6 | 1.10e6 | 1.24e6 | inactive |
| CR42548 (GeneID 8673959) | 1 | 1.44e6 | 1.55e6 | 1.12e6 | 1.30e6 | inactive |
| rut (GeneID 32406) | 1 | 9.71e5 | 9.95e5 | 6.10e5 | 6.50e5 | active |
| btsz (GeneID 3346167) | 1 | 1.33e6 | 1.36e6 | 7.59e5 | 8.72e5 | inactive |
| btsz (GeneID 3346167) | 2 | 1.35e6 | 1.33e6 | 1.11e6 | 1.28e6 | inactive |
| CG33757 (GeneID 3772602) | 1 | 1.43e6 | 1.48e6 | 9.97e5 | 1.04e6 | inactive |
| CG11379 (GeneID 31062) | 1 | 1.62e6 | 1.61e6 | 1.10e6 | 1.24e6 | inactive |
| CG17321 (GeneID 35144) | 1 | 1.55e6 | 1.65e6 | 1.36e6 | 3.13e5 | inactive |
| CG33111 (GeneID 50068) | 1 | 1.50e6 | 1.46e6 | 9.86e5 | 1.06e6 | inactive |
| CG33111 (GeneID 50068) | 2 | 1.47e6 | 1.53e6 | 9.98e5 | 1.06e6 | inactive |
| Dysb (GeneID 40052) | 1 | 1.71e6 | 1.83e6 | 1.40e6 | 1.44e6 | inactive |
| CG4020 (GeneID 31522) | 1 | 1.57e6 | 1.54e6 | 1.07e6 | 1.22e6 | inactive |
| CG2641 (GeneID 40921) | 1 | 1.53e6 | 1.70e6 | 1.22e6 | 1.30e6 | inactive |
| ebd2 (GeneID 40363) | 1 | 1.43e6 | 1.58e6 | 1.23e6 | 1.30e6 | inactive |
| Srr (GeneID 41117) | 1 | 1.71e6 | 1.75e6 | 1.24e6 | 1.39e6 | inactive |
| aqz (GeneID 41058) | 1 | 1.33e6 | 1.37e6 | 1.20e6 | 1.34e6 | inactive |
| CG2772 (GeneID 33559) | 1 | 1.47e6 | 1.42e6 | 1.07e6 | 1.21e6 | inactive |
| Lcch3 (GeneID 32554) | 1 | 6.60e5 | – | 9.89e5 | – | inactive |
| CG3734 (GeneID 42318) | 1 | 1.33e6 | 1.34e6 | 1.07e6 | 1.16e6 | inactive |
| Tsp39D (GeneID 35405) | 1 | 1.61e6 | 1.64e6 | 1.36e6 | 4.39e5 | inactive |
| HLH3B (GeneID 31249) | 1 | 1.40e6 | 1.40e6 | 9.78e5 | 1.09e6 | inactive |
| Unc-76 (GeneID 31179) | 1 | 1.42e6 | 1.46e6 | 1.09e6 | 1.14e6 | inactive |
| Unc-76 (GeneID 31179) | 2 | 1.50e6 | 1.49e6 | 1.06e6 | 1.14e6 | inactive |
| Tpc2 (GeneID 37983) | 1 | 1.65e6 | 1.57e6 | 1.49e6 | 1.65e6 | inactive |
| Grl62c (GeneID 5740507) | 1 | 1.51e6 | 1.45e6 | 1.01e6 | 1.20e6 | inactive |
| CG13185 (GeneID 36268) | 1 | 1.39e6 | 1.53e6 | 9.43e5 | 9.66e5 | inactive |
| GstE5 (GeneID 37110) | 1 | 1.54e6 | 1.61e6 | 1.13e6 | 1.26e6 | inactive |
| Atg3 (GeneID 40044) | 1 | 1.57e6 | 1.71e6 | 1.13e6 | 1.24e6 | inactive |
| Cpr76Bc (GeneID 40122) | 1 | 1.51e6 | 1.67e6 | 1.39e6 | 1.48e6 | inactive |
| Spn28Da (GeneID 34082) | 1 | 1.60e6 | 1.66e6 | 1.14e6 | 1.28e6 | inactive |
| Mo25 (GeneID 39858) | 1 | 1.50e6 | 1.59e6 | 1.17e6 | 1.21e6 | inactive |
| CG31441 (GeneID 326139) | 1 | 1.77e6 | 1.84e6 | 1.38e6 | 1.50e6 | inactive |
| CG10348 (GeneID 35132) | 1 | 1.71e6 | 1.73e6 | 1.20e6 | 2.23e5 | inactive |
| CAHbeta (GeneID 41070) | 1 | 1.46e6 | 1.57e6 | 1.21e6 | 1.25e6 | inactive |
| Vha14-2 (GeneID 40748) | 1 | 1.39e6 | 1.39e6 | 1.35e6 | 1.44e6 | inactive |
| CG15435 (GeneID 33655) | 1 | 1.59e6 | 1.64e6 | 1.20e6 | 1.41e6 | inactive |
| CG32986 (GeneID 34208) | 1 | 1.67e6 | 1.60e6 | 1.25e6 | 1.40e6 | inactive |
| CG14321 (GeneID 42134) | 1 | 1.45e6 | 1.44e6 | 9.69e5 | 1.05e6 | inactive |
| CG10587 (GeneID 40318) | 1 | 1.36e6 | 1.41e6 | 1.31e6 | 1.32e6 | inactive |
| CG15576 (GeneID 31369) | 1 | 1.56e6 | 1.52e6 | 1.08e6 | 1.16e6 | inactive |
| CG18766 (GeneID 59150) | 1 | 4.75e5 | – | 8.41e5 | – | inactive |
| Prosbeta6 (GeneID 39855) | 1 | 1.00e6 | 1.06e6 | 6.84e5 | 8.01e5 | active |
| tst + CG10375 | 1 | 1.50e6 | 1.62e6 | 1.23e6 | 1.34e6 | inactive |
| AhcyL2 (GeneID 42043) | 1 | 1.37e6 | 1.35e6 | 1.12e6 | 1.21e6 | inactive |
| CG3502 + CG9863 | 1 | 1.54e6 | 1.63e6 | 1.23e6 | 1.35e6 | inactive |
| Ir51a (GeneID 3771848) | 1 | 1.82e6 | 2.02e6 | 1.46e6 | 1.64e6 | inactive |
| CG32104 (GeneID 39413) | 1 | 1.81e6 | 1.84e6 | 1.33e6 | 1.36e6 | inactive |
| CG32104 (GeneID 39413) | 2 | 1.64e6 | 1.75e6 | 1.29e6 | 1.34e6 | inactive |
| CG42512 + CG32573 | 1 | 1.51e6 | 1.53e6 | 1.06e6 | 1.08e6 | inactive |
| CG42512 + CG32573 | 2 | 1.63e6 | 1.70e6 | 1.09e6 | 1.21e6 | inactive |
| CG2063 (GeneID 35952) | 1 | 1.61e6 | 1.64e6 | 1.18e6 | 1.26e6 | inactive |
| mRpL54 (GeneID 37389) | 1 | 1.35e6 | 1.42e6 | 9.22e5 | 1.06e6 | inactive |
| rec (GeneID 49241) | 1 | 1.38e6 | 1.35e6 | 1.12e6 | 1.23e6 | inactive |
| rec (GeneID 49241) | 2 | 1.32e6 | 1.33e6 | 1.09e6 | 1.21e6 | inactive |
| CG12605 (GeneID 38468) | 1 | 1.43e6 | 1.29e6 | 9.51e5 | 1.19e6 | inactive |

Only “S2R+ cell number, rep 1”, for 4 of the entries above:
CG18766 (GeneID 59150): 8.41e5
Prosbeta6 (GeneID 39855): 6.84e5
tst + CG10375: 1.23e6
AhcyL2 (GeneID 42043): 1.12e6
